# From PubChem BioAssay AID493014 (National Center for Advancing Translational Sciences (NCATS), 2011)
# Among all 340,000 compounds or so, about 170 (0.05%) were called active. The inconclusive results got no clear call from the source; some entries with a clear call stand among them for comparison. The call rests on the fitted dose curve; in most records, active means well fitted inhibition curve with a large enough effect in the signal ratio, with a control signal flat (not every such curve was filed as active); inconclusive means small, poorly fitted or top-dose-only effect, or effect the other way, or a change in a side signal; inactive means flat fitted curve, though single readings scatter; the % refers to the signal ratio. Potencies beside an inconclusive call are fits to weak or partial responses and may not hold up.
# Experiment: qHTS Assay to Find Inhibitors of Chronic Active B-Cell Receptor Signaling;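 on activity change, negative = inhibition: plate controls were basal doxycycline-induced cells for no effect and cells given 10 µM MG132 for full effect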
# Conditions: ABC-DLBCL IkBa-CBG/CBR reporter, luminescence ratio (green luciferase fused to IkBa over red control in TMD8 lymphoma cells), 4 h; activity change, negative = inhibition: at 46.1 µM (top of the series)
# In short: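 TMD8 ABC-DLBCL cells carrying doxycycline-inducible green luciferase fused to IkappaBalpha plus unfused red luciferase were exposed to compounds (up to 46 uM) for 4 hrs at 37C. Activity came from the overlap-corrected green/red luminescence ratio.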
# Potency means the concentration at half of the fitted maximal effect.
Compound,"activity change, negative = inhibition",Potency
CC(CC(=O)N1CCc2ccccc21)c1ccccc1 (stereo not given),inconclusive: 22.1%,–
O=C(Cc1ccccc1)N(Cc1cccnc1)c1nc2c(F)cc(F)cc2s1,–,"inconclusive: 8.91 µM [activator, partial curve, poor fit]"
N#Cc1c(N)n(CCNC(=O)c2ccccc2)c2nc3ccccc3nc12,inactive,–
CN(/N=C/c1cc([N+](=O)[O-])ccc1O)c1ccccc1,inconclusive: 7.97%,–
Cn1cnnc1Sc1ccc(C(F)(F)F)cc1[N+](=O)[O-],inactive,–
CC1CCc2sc(C(=O)Nc3ccc(C(N)=O)cc3)cc2C1 (stereo not given),–,"inconclusive: 35.5 µM [falling, single point]"
Cc1cc(CN(C)C(=O)c2ccc3nc(Cc4ccccc4F)oc3c2)on1,inactive,–
Cc1ccc(N(CC(=O)Nc2ccc(-c3nc4ccc(C)cc4s3)cc2)S(C)(=O)=O)cc1,inactive,–
CCN(CC)S(=O)(=O)c1ccc(N2CCN(c3ccccc3OC)CC2)c(N)c1,inactive,–
O=C(Cn1c2ccccc2c2nc3n(c(=O)c21)CCS3)Nc1ccccc1,inconclusive: -4.88%,–
O=C(Nc1ccc(S(=O)(=O)N2CCc3ccccc32)cc1)c1ccc2c(c1)OCO2,inconclusive: 6.8%,–
O=S(=O)(c1ccc(Cl)cc1)N1CCC(c2nc3ccccc3[nH]2)CC1,inactive,–
O=c1oc2ccccc2n1CSC1=NCCS1,–,"inconclusive: 15.8 µM [falling, partial curve, poor fit]"
COc1ccc(Cl)cc1NC(=O)CC1CCCC1,inconclusive: 9.72%,–
Cc1ccc(OCCSc2nc(NC(C)C)nc(NC(C)C)n2)cc1,inconclusive: 5.99%,–
C=CCn1c(NC(=O)c2ccc(C)cc2)c(C#N)sc1=N,inconclusive: -0.855%,–
CCOC(=O)[C@H]1[C@H]2COc3ccc(C)cc3[C@@H]2N2C(=O)c3cc(Cl)ccc3NC(=O)[C@@]12C,inconclusive: 1.41%,–
CC(=O)c1ccc(N2CCN(c3ccc(NC(=O)c4ccc(F)cc4)cc3C(=O)O)CC2)cc1,inconclusive: -8.85%,–
COc1ccc(CC(=O)NCCC2=CCCCC2)cc1,inconclusive: 4.14%,–
Cc1cc(C)n(CCOc2ccc(Br)cc2)n1,inconclusive: 3.04%,–
O=C(O)c1ccc2c(c1)-c1cc(C(=O)O)ccc1S2(=O)=O,inactive,–
CC(C)(C)c1ccc(C(=O)NCC(c2cccs2)S(=O)(=O)c2ccccc2)cc1 (stereo not given),inactive,–
CCC(C)N1C(=O)S/C(=C/c2ccc(Sc3nc4ccccc4[nH]3)o2)C1=O (stereo not given),inconclusive: 0.791%,–
CC1C(=O)N2CCCc3cc(NC(=O)C4CC4)cc1c32 (stereo not given),inactive,–
CC1(C)Cc2c(cnn2-c2ccccc2)C(=O)/C1=N\NC(=O)c1ccccc1,–,"inconclusive: 0.116 µM [rising, full curve, poor fit]"
COc1cccc(CNCC(O)COc2ccc(C(=O)c3ccccc3)cc2)c1 (stereo not given),–,"inconclusive: 20 µM [falling, partial curve, poor fit]"
COc1cc(/C=C(\NC(=O)c2ccccc2)C(=O)Nc2nccs2)ccc1OC(C)=O,inactive,–

# Ordered by SMILES length (smallest number first): 5 of the compounds above.
Compound,"activity change, negative = inhibition",Potency
CC1C(=O)N2CCCc3cc(NC(=O)C4CC4)cc1c32 (stereo not given),inactive,–
C=CCn1c(NC(=O)c2ccc(C)cc2)c(C#N)sc1=N,inconclusive: -0.855%,–
Cn1cnnc1Sc1ccc(C(F)(F)F)cc1[N+](=O)[O-],inactive,–
CCN(CC)S(=O)(=O)c1ccc(N2CCN(c3ccccc3OC)CC2)c(N)c1,inactive,–
Cc1ccc(N(CC(=O)Nc2ccc(-c3nc4ccc(C)cc4s3)cc2)S(C)(=O)=O)cc1,inactive,–

# Further entries.

Compound,"activity change, negative = inhibition",Potency
Cc1ccc(/C=N/c2sc3c(c2C#N)CCCCC3)o1,inconclusive: -10.8%,–
COc1ccc(N(CC(=O)NCCC2=CCCCC2)S(C)(=O)=O)cc1OC,–,"inconclusive: 10.3 µM [falling, partial curve, poor fit]"
O=C1c2ccccc2C(O)N1Cc1ccccc1Cl (stereo not given),inconclusive: -8.08%,–
COc1ccccc1CN1CCNC(=O)C1CC(=O)NCCCn1cccn1 (stereo not given),inconclusive: 11.1%,–
COc1ccc(OC)c(S(=O)(=O)NCC(=O)NC2CCCc3ccccc32)c1 (stereo not given),–,"inconclusive: 16.4 µM [falling, partial curve, poor fit]"
O=C(NC1CCCCCC1)c1cccnc1Sc1ccc(Cl)cc1,inconclusive: -2.5%,–
COc1ccc(-c2nnn(Cc3ccccc3)n2)cc1,inactive,–
CCC(C)NC(=O)CSc1nc2n[nH]c(C)c2c(=N)n1-c1ccc(OC)cc1 (stereo not given),–,"inconclusive: 3.16 µM [falling, partial curve, poor fit]"
Cc1cccc(NC(=O)CNC(=O)c2ccccc2Cl)n1,–,"inconclusive: 15.8 µM [falling, partial curve]"
Cc1ccc(-n2c(SCc3cccc(F)c3)nc3[nH]ncc3c2=O)cc1C,–,"inconclusive: 3.98 µM [falling, partial curve, poor fit]"
COC(=O)C(C(=O)OC)N1C(=O)CCC1=O,inconclusive: 3.36%,–
COc1cccc2cc(C(=O)NCCc3ccccc3)c(=O)oc12,–,"inconclusive: 17.8 µM [falling, partial curve, poor fit]"
COc1cc(C(=O)NCC(=O)OCC(=O)c2cccc3ccccc23)cc(OC)c1OC,inactive,–
COc1cc(OC)c(OC)cc1/C=C/c1nc2cc3ccccc3cc2c(=O)n1-c1ccc(F)cc1F,–,"inconclusive: 5.01 µM [rising, full curve]"
Cc1ccc(S(=O)(=O)/N=C2/C=C(C3C(=O)CC(C)(C)CC3=O)C(=O)c3ccccc32)cc1,inconclusive: 11.3%,–
CCCCn1c(-c2csc3c2CCC(C)C3)n[nH]c1=S (stereo not given),inconclusive: 1.85%,–
CCCCOC(=O)C1=C(C)Nc2ncnn2C1c1cccc(OC)c1 (stereo not given),inconclusive: 3.17%,–
COc1ccc(Cc2nnc(NC(=O)CSc3ccc(Cl)cc3)s2)cc1OC,inactive,–
CC(C)(CNC(=O)c1cc(-c2ccc(Cl)s2)nc2ccccc12)N1CCOCC1,inactive,–
CCN(CC(=O)Nc1ccccc1OC)CC(=O)Nc1c(Cl)ccc(C)c1Cl,inactive,–
Cc1ccc(C)c(OCC(=O)NCCNC(=O)COc2cc(C)ccc2C)c1,inconclusive: -26.8%,–
COC(=O)c1ccc(C(=O)OC)c(NC(=O)c2cnc3n(c2=O)CCS3)c1,inconclusive: 8.79%,–
O=C(N/N=C/c1c(O)n(-c2ccccc2Cl)c(=O)c2ccccc12)c1cccnc1,–,"inconclusive: 35.5 µM [falling, partial curve, poor fit]"
O=C1c2cccc(OCc3ccc(F)cc3)c2CCN1Cc1ccc(F)cc1,inconclusive: -19.6%,–
CCN(CC)C(=O)c1cc(-c2ccc3c(c2)OCO3)on1,inconclusive: -15.2%,–
COc1ccccc1CNC(=O)COC(=O)c1n[nH]c2ccccc12,–,"inconclusive: 16.4 µM [falling, single point]"
Cc1cc(C(=O)Nc2nc3c(s2)CCCC3)cs1,–,"inconclusive: 22.4 µM [falling, single point]"

Compound,"activity change, negative = inhibition",Potency
C=CCSc1nc(N)c(C(=O)Nc2ccccc2)cc1C#N,–,"inconclusive: 6.51 µM [rising, partial curve]"
COc1ccc2cc(C(=O)/C=C/c3cc(OC)c(OC)c(OC)c3)ccc2c1,–,"inconclusive: 17.8 µM [falling, partial curve]"
c1cncc(-c2csc(-c3cccnc3)n2)c1,inconclusive: -0.543%,–
Cc1nc2c(-c3ccccc3)cnn2c(N2CCOCC2)c1C,inconclusive: 3.94%,–
CS(=O)(=O)Nc1cccc(C2=NN(C(=O)c3ccco3)C(c3cccs3)C2)c1 (stereo not given),inconclusive: -19.8%,–
COCCN1CCN(c2cc(-c3ccccc3)nc3cc(-c4cccc(F)c4)nn23)CC1,–,"inconclusive: 8.2 µM [falling, partial curve, poor fit]"
COc1cccc(NC(=O)NCCCSC2CCCCC2)c1,inconclusive: 3.78%,–
O=C(COC(=O)C1CC(=O)N(c2nc(-c3ccccc3)cs2)C1)c1ccccc1 (stereo not given),inconclusive: -9.79%,–
COc1cc(OC)cc(-c2n[nH]c(=S)n2-c2ccc3c(c2)OCO3)c1,inactive,–
COC(=O)c1cn(C(=O)c2ccccc2Cl)c2ccccc12,inconclusive: 3.61%,–
CCN(C(=O)COC(=O)c1ccccc1SCC(=O)N1CCCC1)C1CCS(=O)(=O)C1 (stereo not given),–,"inconclusive: 16.4 µM [falling, partial curve]"
O=Cc1c(OCc2ccccc2)ccc2ccccc12,–,"inconclusive: 28.2 µM [falling, single point]"
NC(=O)c1cnn(-c2cccc(Cl)c2)c1N,inconclusive: 0.0364%,–
COC(=O)C1=C(CS(=O)(=O)c2ccccc2)NC(=O)NC1c1ccc(OC)c(OC)c1 (stereo not given),inactive,–
COc1ccc(C(=O)/C=C/c2ccc(OC3CSC3)cc2)cc1,–,"inconclusive: 32.6 µM [falling, single point]"
Clc1cccc2sc(N3CCCC3)nc12,inconclusive: -0.756%,–
O=C(NCCCl)c1ccc(OCc2ccccc2)cc1Cl,–,"inconclusive: 25.1 µM [falling, single point]"
O=[N+]([O-])c1ccc(NCCNS(=O)(=O)c2ccccc2)cc1,inactive,–
COc1c(Cl)cccc1-c1cn2ccc(C)cc2n1,–,"inconclusive: 12.6 µM [falling, single point]"
Cc1cc(Cl)ccc1Nc1ncccc1C(N)=O,inconclusive: -0.581%,–
CCOc1ccc(N2CC(NC(=O)C(=O)c3c[nH]c4ccccc34)CC2=O)cc1 (stereo not given),–,"inconclusive: 11.2 µM [falling, partial curve, poor fit]"
CC1=CC2=NC(=O)/C(=C\c3cccn3CCOc3ccccc3C)C(=N)N2O1,inconclusive: -10.1%,–
CCOC(=O)c1c(C)n(-c2ccc(C)cc2)c2c(C(C(C)=O)C(=O)O)c(Br)c(O)c(O)c12 (stereo not given),inactive,–
CCc1ccc(Sc2cc(C(=O)NCc3cccc(OC)c3)c3ccccc3n2)cc1,inactive,–
CCCCn1c(-c2ccccc2C)nc2cc3[nH]c(=O)c(C(C)C)nc3cc21,inconclusive: 14.7%,–
CC(C)(C)c1cc(N)n2nc(C(C)(C)C)cc2n1,inconclusive: 5.13%,–
